No constants are given. Whether binding was seen depends on the method and setting. In cells and extracts the contact can be indirect. Here binding means that the protein was enriched with, or labelled near, the bait; the list need not be complete.
Biological target: Flag/SBP-PHF2 (human) (UniProt O75151)
Assay: affinity purification with mass spectrometry; HepG2 cells transfected with Flag/SBP-PHF2; proteins purified with Flag or streptavidin affinity beads, in-gel digestion, LC-MS

The chains behind the UniProt entries cited, without tags or fusion partners.
UniProt O75151: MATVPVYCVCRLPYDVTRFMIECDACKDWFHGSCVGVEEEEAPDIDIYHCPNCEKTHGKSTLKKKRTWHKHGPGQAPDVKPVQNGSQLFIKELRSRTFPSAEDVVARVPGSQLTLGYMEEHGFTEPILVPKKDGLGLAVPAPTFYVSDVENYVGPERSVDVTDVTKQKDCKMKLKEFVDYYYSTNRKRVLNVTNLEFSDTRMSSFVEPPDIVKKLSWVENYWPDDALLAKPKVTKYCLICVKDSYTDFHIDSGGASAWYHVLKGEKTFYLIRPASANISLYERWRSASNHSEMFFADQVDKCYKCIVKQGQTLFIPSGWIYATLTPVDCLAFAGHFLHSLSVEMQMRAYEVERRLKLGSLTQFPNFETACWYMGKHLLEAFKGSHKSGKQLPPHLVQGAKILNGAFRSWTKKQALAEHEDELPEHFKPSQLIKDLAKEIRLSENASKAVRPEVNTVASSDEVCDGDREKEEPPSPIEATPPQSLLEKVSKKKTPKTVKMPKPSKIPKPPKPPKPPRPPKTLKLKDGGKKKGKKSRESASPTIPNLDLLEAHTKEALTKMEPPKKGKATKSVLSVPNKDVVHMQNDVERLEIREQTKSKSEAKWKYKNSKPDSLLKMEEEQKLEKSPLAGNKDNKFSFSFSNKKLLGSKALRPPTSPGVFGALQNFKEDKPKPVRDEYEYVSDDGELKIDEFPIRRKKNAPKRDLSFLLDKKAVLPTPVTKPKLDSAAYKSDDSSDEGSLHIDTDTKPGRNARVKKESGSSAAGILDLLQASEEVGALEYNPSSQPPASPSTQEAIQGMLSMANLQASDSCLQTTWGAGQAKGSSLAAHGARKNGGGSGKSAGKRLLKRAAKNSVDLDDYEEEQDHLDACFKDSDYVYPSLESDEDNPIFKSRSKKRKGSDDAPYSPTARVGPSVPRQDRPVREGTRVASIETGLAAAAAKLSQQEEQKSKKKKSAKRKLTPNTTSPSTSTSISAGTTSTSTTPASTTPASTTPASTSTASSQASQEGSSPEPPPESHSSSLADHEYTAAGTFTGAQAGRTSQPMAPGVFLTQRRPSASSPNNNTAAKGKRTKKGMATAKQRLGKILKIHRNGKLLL

binding: binds
B1: endogenous SREBP1c (sterol regulatory element-binding protein 1c) (protein, UniProt P36956-3 1-1047)
chain: MDCTFEDMLQLINNQDSDFPGLFDPPYAGSGAGGTDPASPDTSSPGSLSPPPATLSSSLEAFLSGPQAAPSPLSPPQPAPTPLKMYPSMPAFSPGPGIKEESVPLSILQTPTPQPLPGALLPQSFPAPAPPQFSSTPVLGYPSPPGGFSTGSPPGNTQQPLPGLPLASPPGVPPVSLHTQVQSVVPQQLLTVTAAPTAAPVTTTVTSQIQQVPVLLQPHFIKADSLLLTAMKTDGATVKAAGLSPLVSGTTVQTGPLPTLVSGGTILATVPLVVDAEKLPINRLAAGSKAPASAQSRGEKRTAHNAIEKRYRSSINDKIIELKDLVVGTEAKLNKSAVLRKAIDYIRFLQHSNQKLKQENLSLRTAVHKSKSLKDLVSACGSGGNTDVLMEGVKTEVEDTLTPPPSDAGSPFQSSPLSLGSRGSGSGGSGSDSEPDSPVFEDSKAKPEQRPSLHSRGMLDRSRLALCTLVFLCLSCNPLASLLGARGLPSPSDTTSVYHSPGRNVLGTESRDGPGWAQWLLPPVVWLLNGLLVLVSLVLLFVYGEPVTRPHSGPAVYFWRHRKQADLDLARGDFAQAAQQLWLALRALGRPLPTSHLDLACSLLWNLIRHLLQRLWVGRWLAGRAGGLQQDCALRVDASASARDAALVYHKLHQLHTMGKHTGGHLTATNLALSALNLAECAGDAVSVATLAEIYVAAALRVKTSLPRALHFLTRFFLSSARQACLAQSGSVPPAMQWLCHPVGHRFFVDGDWSVLSTPWESLYSLAGNPVDPLAQVTQLFREHLLERALNCVTQPNPSPGSADGDKEFSDALGYLQLLNSCSDAAGAPAYSFSISSSMATTTGVDPVAKWWASLTAVVIHWLRRDEEAAERLCPLVEHLPRVLQESERPLPRAALHSFKAARALLGCAKAESGPASLTICEKASGYLQDSLATTPASSSIDKAVQLFLCDLLLVVRTSLWRQQQPPAPAPAAQGTSSRPQASALELRGFQRDLSSLRRLAQSFRPAMRRLMDVLTSESAWALPQHLGKGFPSPSGHKVPGWHGRMD

— publication PMC10570296
